For nine molecules, binding results are on record in publication PMC13324451 (The Journal of Biological Chemistry, 2026).

Sequences and labels used below:
T1: VgrG3 with a C-terminal haemagglutinin epitope tag (VgrG3-HA) (Chromobacterium violaceum ATCC 12472) (UniProt Q7NY43)
T1 sequence: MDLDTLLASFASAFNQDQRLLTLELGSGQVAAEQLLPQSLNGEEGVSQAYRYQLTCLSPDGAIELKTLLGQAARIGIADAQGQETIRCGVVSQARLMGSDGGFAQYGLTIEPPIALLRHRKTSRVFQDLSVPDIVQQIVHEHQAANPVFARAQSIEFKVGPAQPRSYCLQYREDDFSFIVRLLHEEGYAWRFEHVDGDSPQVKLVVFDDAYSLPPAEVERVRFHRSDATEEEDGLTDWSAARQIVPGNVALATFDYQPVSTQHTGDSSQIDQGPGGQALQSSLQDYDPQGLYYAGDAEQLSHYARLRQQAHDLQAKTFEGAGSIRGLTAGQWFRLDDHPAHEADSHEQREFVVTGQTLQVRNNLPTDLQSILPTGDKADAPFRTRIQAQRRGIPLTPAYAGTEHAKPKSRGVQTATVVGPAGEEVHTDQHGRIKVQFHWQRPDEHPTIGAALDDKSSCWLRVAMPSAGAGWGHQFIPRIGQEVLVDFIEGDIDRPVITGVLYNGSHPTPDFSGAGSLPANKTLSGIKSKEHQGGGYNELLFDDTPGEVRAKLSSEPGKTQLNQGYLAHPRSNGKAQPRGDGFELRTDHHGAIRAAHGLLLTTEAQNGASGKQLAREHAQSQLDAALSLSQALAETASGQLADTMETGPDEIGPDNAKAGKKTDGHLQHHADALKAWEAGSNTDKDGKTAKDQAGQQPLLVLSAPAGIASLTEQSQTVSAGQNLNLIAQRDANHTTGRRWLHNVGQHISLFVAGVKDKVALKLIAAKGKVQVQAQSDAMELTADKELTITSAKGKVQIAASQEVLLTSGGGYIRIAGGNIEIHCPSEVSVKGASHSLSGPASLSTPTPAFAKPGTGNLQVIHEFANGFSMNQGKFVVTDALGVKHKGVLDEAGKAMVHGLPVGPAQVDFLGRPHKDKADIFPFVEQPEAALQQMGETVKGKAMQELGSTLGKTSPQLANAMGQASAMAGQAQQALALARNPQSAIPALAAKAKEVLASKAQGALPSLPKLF

B1: VgrG4 (protein, UniProt Q7NYP0 1-963)
chain: MDLNALLASFASAFSQEQRLISLEFGGGHIASEQLLPLSLDGEEGISRSYRYTLTCLSPDGNIELKTLLGQPARIGIQDADGDETIRCGVVSQAKLAGSDGGFAKYELTIEPPFALLRHRRTSRVFQDLSVPDIVKQIIGEHQAANPAFARVQTLGIQVKPAQPRSYTLQYRESDFDFIVRLIHEEGYAWRFLHLDDDGPQVELAIFDDAHSLPGSKLERVRFHRSDASEEEDGLTGWEAARQIVPGGTALASYDYKSVYALQSGDQSRIDQGQAGQSLQSSLRHYDAPGLYYAGDEEQLGQYAALRQQANDLQAKSFSGTGSVRGLLPGEWFRLDEHPAHDSDAPASREFVVTGQSFQARNNLPTDLAQHIGAEQDAAPFTTSIQAQRRGIPLTPAYAGTAHAKPTSQGAQTATVVGPAGEEVHTDEQGRVKVQFHWQRQEEHPTIGAGMDDKSSCWLRVAMPSAGAAWGHQFIPRIGQEVLVNFIEGDIDRPLITGVLYNGSHPPPDFSGAGALPANKTLSGIKSKEHQGGAYNELLFDDTPGEVRAKLSSELGKTQLNQGFLTHPRSNGKAQPRGEGFELRTDQHGAIRAAHGLLLSTEAQNGASGKQLAREHAQSQLQSAVALSQALAETATGQLADTMETGPDGIGEDNAKAGKKAKGHMQHQLDALAAWEAGSNTDKDGKTAKGQAGQQPQLVLSGPAGIASVTEQSQTLAAGANLNLVVQRDANHTTGRRWVHNVGKHISLFVAGIKDNTAMKLIAAKGKVQILAQSDAMEWTADKDVTITSCKDSITIAAKEEILLNVGGGAYIRLAGGNIEVHCPGTVSVKGAQHNLSGPDKMTVAHPAFPKNIPKQNIGLKVNHSFVEGDHAVPGMPFKLYADGAMIKQGVLDETGHLPVEHNVLTQKYTLELANGIKRHFNMVPSYAKPPHDELANGGINHGEQSDKLDQYQDFFGGKGEQA
B2: PAAR domain-containing protein (CV_2124) (protein, UniProt Q7NW66 1-178)
chain: MVISAAMKPVIRLGDPTSHGGKVVSASSTTTMFGKAVALVGDSVTCPQQGHTNCVIVEGDPTWTVGGKGVALDGHAVSCGAKLISTLGSVMRSYEGSGAAIVGAAASTSAAIQLAESKDEDLEYFFVAQRDDGSPAKLAYRIDSGDEKLHEGELCGEGKTSAFPMNKAGEPTFWIPMV
B3: Flagellar biosynthesis protein FlhF (protein, UniProt Q7NZ98 1-479)
chain: MVVKKFFGKTTRDALRQVREELGADALILSNRPTMGGGVEIMAVADADVANLASTLSTSSSKHPPRNAPPAVNRPQQPAPIPQANGSAMNRAIARTYAMPVEPLESPAPPRLDAAPPRVEPTYAPPQPVAQPLMQPAAQPIPRAAPRPPAPEPAAPHANGEEQEQMAQELRQIGDEIKLLRSLLQSQLASFAWSDMEGKAPNRLELFKHLLAMGFSAQLIRQLIEKMPAQYQAEVAVKWARSALAHNLKCADADREVMDRGGIFALVGPTGVGKTTTVAKLAARATMRFGAQHVALITTDSYRIGAQDQLRIYGKILGVPVFSIQNEGDLQLTLADLSNRHIVFIDTVGMGQRDARVLAQIDMLRTAGRPIERLLLLAANTDGHTLEDVVKRYRGDGLAGCILSKIDEAVAQGPSLDVIIRNRLKLYYVTNGQRVPEDLHSANAAFLVDRAMRAQQIASPFALQADEMSIMQAAQAGWL
B4: DUF4123 domain-containing protein Tap-1 (CV_3974) (protein, UniProt Q7NR11 1-257)
chain: MTAPSPEAWLYMLLQTARELELPWLDLIVDQAEMGARWQSRVGALYPPRMLLQDTPHAEAADEGPVLVRLDANQPQTRLLKLLRQWQGQPRVLALFSGWDYDQLAERLTLCMQASWDKGLQQGVLRFHDPRLFAAVVDALDEPRRQLLLEPAVQWHWLDRDGHARMLDATALQSLPPLEWVHDTLTLEQPHIDALACWHLAETWRQNHLLVPQLYGLDSEEELVRRLAQAHQAADKAKLWSEAERIPVVERMLRENA
B5: Tle1 phospholipase (CV_0012) (protein, UniProt Q7P249 1-512)
chain: MQDWSDSSFETQMQAAQKRQELHPLLAGCPTCEQKPWISVFFDGTGNNGEIDADKKKWSNIYRLFQGHADDQTRGIFPIYIPGPGTPLSVSNAGWLSKLRDSGALGGGFGLGMDARMDKAFKLFSRNLADCQRVSRIDIAIFGFSRGATLARAWINLLLKECIWEKGKPHWRMLNAKNGVSAEICIRYVGLFDTVESVGMVAKNWSPSQCMTLPNVVERCVHYVSAHELRGAFPLTTVADTAGAPPGEERVWPGMHSDVGGGYRPNEQGRFDTLSRLPLNAMRLDAYLAGVPFLSPAELKGNMVENKHVFDYFEYDAELKNLYDHYKSQISDASSDLDRTIISHMKLYYGWMKLRQDGDIDSLYGKVREERADLAKELENELSDQRKYLRKIPFENLSRKENVEWARLKISDFRKYREKLESARETYGKNFRPYELNSRQLTYWDAWEKSVVPDEKITKFFDFYVHDSRAGFTFNSGDYLEPREVLERKVCSVEPARRGKQIAASNIGVDHQ
B6: Tle5 phospholipase (CV_1234) (protein, UniProt Q7NYN9 1-656)
chain: MSQPLAKHKPRQHNVDPSQHQTTRTSTPWFLADDHPVGYKPEFHEVNATFEPLINGERAFGAIYDAILAAKHSVDIVCWGFQPSMYFKRGAGAPPIQYYLQQPQLPPLTADNIDKIADDMAGKLPFTRRKLHPKDKIMPIGELLEMKSLEGVKVRILTWNDPISQIPEVMNPGYNVKRGDNENFLQECYDIGWHQDIRANKNIQFRTRHFDDIDKNAYILPNLVRNGASTMHAAATSKFPSHHQKTVLIDYEHPESALGFVMGHNMLDAYWDRDDHHYVQQEPHLGRNGATARHDISSRLTGPVLVHVNHNFVAGWDKATGENLTGKRAHLELKHFTPRPNLGSRAMAQIARTQSQTRPKGKVKDELTVQDIKHLYLNAVNHACQYIYIENQYFRWVNFAEATKQAVKNQLAFGRDPGQHGPVYLMVVTNDNAEGMGLGVKNTYKMLDALGKRSQMPTLARSSINEQVKQAEREVQIGENQNAKRTSKPLSDLPERRKKLAALKQEQAEANQGKFVDGDIPGLKTHVCSLVSMTGYQQGQPWQYVYIHAKLMMIDDTFMTLGSANINLRSMVCDSEINVCHCQPDITRAARQHLWNMHTVGQGNTADASKPQPLADVYDRWERIMKANQKNRQSKRAPIAPLVKFSNDTSSTKDLD
B7: Uncharacterized protein (CV_3151) (protein, UniProt Q7NTA8 1-519)
chain: MTADSIRFELTPPYRHDGKPARFQSLWLLARLHYAAAHEDGMVAVSALRQRFPASRTPRMLVSRAFADFAAWGVEVGWGAPPSESIALLNPDGRSRGPFWLSAAGHARLGFLVDGKPADRRQLELFLGLAPWPSSEPDAARLDTLSHNLDYWSQLTQAIRDERDGMGRLAGPQVAASFHAASLAARNDFQQALALTKESLAWRRSAQFDDSRLALKKLGRVLDGRRFETAQPTFAAMACIARAWDHYARGESVSAEACLGQLLGPGELQPVYRYNPRVRFECLNLGALLHKQAAIAERAPERAEAALRDLAGALEAAYEADSIDAAQHVAANLGWCLWLFWQQQLIDPLRVLRMADMQRLAMRWLGLSEWICDRFGVGNGSAWNVVFLLRIARGDCLHAKRPSLAGFRSAKPFPLQDLRDALALSPCPFSAAKGYRSWAAVAEVTLEEHDQGRLPLTPLQLANLLLETLWFQAWEDGLSRRACGNAQRLKLLLPHLRRSERSFFRAEMAALPPELLESG
B8: DUF4123 domain-containing protein Tap-1 (CV_0015) (protein, UniProt Q7P246 1-304)
chain: MSAFRLLVESRLQTLQQGNRAYLLLDGSVLNRKQRKLFSLLPLFADTGLSSVIEDGPQWLDVDTLSDTRWAVLEALLSNFPQPLQLVLSKHELSDLNAHYQRQLDGFDVGNKQLIWFHFYQATVLPILHRELPDEYRAVLFGPVAEWWVLDRGNEWQKLTGDNAGMVINPYRHPFHGEVFPLSAELAQALNDERLTDDVYQWLRHHLPDTLPKIQWHALARIQEMVEYARAAYALTDINAILSWCILAMLTVEDVDQKIPEIAQRMHEAGSGEGVPVNWLTYGLSDPAKVKLEEFFQARKQALM
B9: PAAR domain-containing protein (CV_2664) (protein, UniProt Q7NUN3 1-198)
chain: MENPRIFLHLAPTMSKPIIRLGDKTDHGGTVLEAFPTLVIFGKPAAGVGHKVSCPKCKGTFVIVEGAANTSFMGKNVAIEGMKTSCGATLIASQGQSTINVDSGAAAAVTSSPAQIASALTAASASEKLFDQHFIVHDKNGAPLPNWPYTIELANGHTISGKTDDMGKTSKVSSDAADSVTLHVYEPEPTPINPHWDQ

No constants are given. Whether binding was seen depends on the method and setting. Binding seen in cells or lysates may run through a third protein. These calls come from enrichment with a bait or labelling near it, and not all partners need be listed. Tags and fused reporters may be left off the sequences shown.

The target in the test is T1, VgrG3 with a C-terminal haemagglutinin epitope tag (VgrG3-HA) (Chromobacterium violaceum ATCC 12472). In words: affinity purification with mass spectrometry; VgrG3-HA precipitated with HA-tag rabbit mAb magnetic beads from the soluble fraction of C. violaceum vgrG3-HA cells (untagged wild type as control); 16 h at 4 °C; 20 mM Tris-Cl pH 7.5, 150 mM NaCl, 0.5 mM EDTA, 0.1% Triton X-100; label-free quantitative MS, biological triplicates.
For the molecule B1, the binding result is “binds”.

Take B2: the binding result is recorded as “binds”.

In the case of B3, the binding result is reported as “binds”.

For B4, the binding result is “binds”.

B5: the binding entry is listed as “binds”.

With B6, the binding result is “binds”.

On to B7, for which the binding result is reported as “binds”.

For the molecule B8, the binding result is reported as “binds”.

Consider B9, for which the binding entry is recorded as “binds”.
